From paper PMC5035054
Results are given in words; binding and its absence hold for the method and conditions named. Binding seen in cells or lysates may run through a third protein.

The chains behind the UniProt entries cited, without tags or fusion partners.
UniProt P08579: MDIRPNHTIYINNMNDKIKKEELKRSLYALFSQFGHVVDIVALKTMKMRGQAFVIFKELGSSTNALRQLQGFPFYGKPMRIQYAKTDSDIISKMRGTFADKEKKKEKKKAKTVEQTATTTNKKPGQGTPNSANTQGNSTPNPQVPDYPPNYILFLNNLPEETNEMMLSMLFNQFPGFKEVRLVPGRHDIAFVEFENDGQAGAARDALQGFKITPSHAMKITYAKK

Target: FLAG-V5-tagged U2-B” (FV5-U2-B”) (UniProt P08579)
Assay: co-IP; anti-FLAG immunoprecipitation of FV5-U2-B” from the spliceosome gel-filtration fractions, western blot

- binding: no binding
B1: Polycomb group protein PHC1 (protein, UniProt P78364 1-1004)
chain: METESEQNSNSTNGSSSSGGSSRPQIAQMSLYERQAVQALQALQRQPNAAQYFHQFMLQQQLSNAQLHSLAAVQQATIAASRQASSPNTSTTQQQTTTTQASINLATTSAAQLISRSQSVSSPSATTLTQSVLLGNTTSPPLNQSQAQMYLRPQLGNLLQVNRTLGRNVPLASQLILMPNGAVAAVQQEVPSAQSPGVHADADQVQNLAVRNQQASAQGPQMQGSTQKAIPPGASPVSSLSQASSQALAVAQASSGATNQSLNLSQAGGGSGNSIPGSMGPGGGGQAHGGLGQLPSSGMGGGSCPRKGTGVVQPLPAAQTVTVSQGSQTEAESAAAKKAEADGSGQQNVGMNLTRTATPAPSQTLISSATYTQIQPHSLIQQQQQIHLQQKQVVIQQQIAIHHQQQFQHRQSQLLHTATHLQLAQQQQQQQQQQQQQQQPQATTLTAPQPPQVPPTQQVPPSQSQQQAQTLVVQPMLQSSPLSLPPDAAPKPPIPIQSKPPVAPIKPPQLGAAKMSAAQQPPPHIPVQVVGTRQPGTAQAQALGLAQLAAAVPTSRGMPGTVQSGQAHLASSPPSSQAPGALQECPPTLAPGMTLAPVQGTAHVVKGGATTSSPVVAQVPAAFYMQSVHLPGKPQTLAVKRKADSEEERDDVSTLGSMLPAKASPVAESPKVMDEKSSLGEKAESVANVNANTPSSELVALTPAPSVPPPTLAMVSRQMGDSKPPQAIVKPQILTHIIEGFVIQEGAEPFPVGCSQLLKESEKPLQTGLPTGLTENQSGGPLGVDSPSAELDKKANLLKCEYCGKYAPAEQFRGSKRFCSMTCAKRYNVSCSHQFRLKRKKMKEFQEANYARVRRRGPRRSSSDIARAKIQGKCHRGQEDSSRGSDNSSYDEALSPTSPGPLSVRAGHGERDLGNPNTAPPTPELHGINPVFLSSNPSRWSVEEVYEFIASLQGCQEIAEEFRSQEIDGQALLLLKEEHLMSAMNIKLGPALKICAKINVLKET
